PubChem BioAssay AID602196 | INSERM | 2012
Here is a random part of about 23,000 deposited reagents. 455 of them (2%) count as active. 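Active includes both protection and sensitisation; some change values fall well beyond the stated -50 to +50 range.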 Unmarked entries are inactive. The numbers tell different reagents against one gene apart. Not all columns of the deposit are shown. Not given: the amount of reagent.

Assay: 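Modifiers of cisplatin sensitivity in A549 cells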
Cells: human A549 lung cancer cells
Reagent: siRNA pair against human genes
Time to read-out: 48 h transfection before cisplatin; time from cisplatin to read-out not stated
Treatment: cisplatin at a dose killing half of control-siRNA cells; exact dose and duration not given
Read-out: 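Cisplatin cell death as a shift from the 50% death seen with control siRNA; siRNAs toxic or growth-blocking alone scored 0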
Scale: two-siRNA summed score (-2 to +2): higher = both siRNAs protect from cisplatin killing; -2 means both sensitise; mean protection from cisplatin (shift in death) and protection from cisplatin (shift in death), siRNA C: higher = protection from cisplatin killing
Active means: 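Each siRNA scores 0 if harmful alone by LDH or WST-1, otherwise +1 if it reduces and -1 if it increases cisplatin killing; a gene is active when both siRNAs agree (sum +2 or -2)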
Meaning of the calls: active = both siRNAs shift cisplatin killing the same way; inactive = no consistent shift, or siRNA harmful alone

gene knocked down | reagent no. | two-siRNA summed score (-2 to +2) | mean protection from cisplatin (shift in death) (%) | protection from cisplatin (shift in death), siRNA C (%)
ZNF600 | 1 | 0 | -6 | -6.2
KHK | 1 | 1 | 17.5 | 16.5
LOC441196 | 1 | 0 | -1.4 | -4.2
LOC196541 | 1 | 0 | 8.9 | 16.6
LOC440092 | 1 | 1 | 7.7 | 10.9
LOC439959 | 1 | 1 | 9.2 | 2.1
SERINC3 | 1 | 1 | 10.7 | 8.3
LOC390898 | 1 | 1 | 8.1 | -1.6
CTLA4 | 1 | 0 | -12.2 | -24.6
FRAT2 | 1 | -1 | -25.3 | -14.2
LOC126167 | 1 | 0 | -2.7 | 1.5
LOC388308 | 1 | 0 | 17.2 | -12.5
FLJ35107 | 1 | 0 | -0.2 | 0.5
DTNA | 1 | 0 | 2.2 | 11.5
MORF4L1 | 1 | 0 | 3.3 | 3.1
DERA | 1 | 0 | -6.2 | -4.7
FAM24B | 1 | 0 | 0 | -2.3
TESPA1 | 1 | -1 | -5 | 2.1
NTN5 | 1 | 0 | 2.3 | 3.6
NHSL1 | 1 | 1 | 9.1 | 7
ATPAF2 | 1 | 0 | 4.4 | -2
SMIM29 | 1 | 1 | 9.8 | 4.6
CDC20 | 1 | 1 | -12.9 | 9.1
LOC440806 | 1 | 1 | 19.8 | 21.4
LOC137886 | 1 | 1 | 5.4 | 16.6
LOC440071 | 1 | 2 (active) | 14.2 | 16.1
LOC441616 | 1 | 1 | 10.8 | 7.6
CCDC57 | 1 | -1 | 3.1 | 23.4
CCDC57 | 2 | 0 | 11.5 | 4.2
PRSS1 | 1 | 0 | -9.9 | -24.3
CREBBP | 1 | 0 | 3.7 | 5
STRN3 | 1 | 0 | 6.4 | 8.4
RASSF6 | 1 | 1 | 12.9 | 15.1
TTC23 | 1 | 0 | 3 | 8.2
TTC23 | 2 | 0 | 9.2 | 14.5
TPCN1 | 1 | -1 | -19.5 | 5.2
SPINK6 | 1 | 0 | 9.8 | 2.9
NDUFAF4P2 | 1 | 0 | 13.3 | 6.9
LOC388401 | 1 | 0 | -1.7 | -9.9
LOC441651 | 1 | 0 | 17.3 | 22.3
MOGAT1 | 1 | 0 | 9.7 | 3.1
LOC441798 | 1 | 0 | 7 | 8.3
LOC442610 | 1 | 0 | 3.9 | 4.7
SMC4 | 1 | 0 | 8.9 | 5.7
NRDC | 1 | -1 | -8.7 | 1
TEX56P | 1 | 2 (active) | 18.6 | 15.1
CYP11A1 | 1 | 0 | -3.5 | -14.5
LOC441335 | 1 | 1 | 8.1 | 4.3
KIF21B | 1 | 0 | 1 | 5.8
LOC442695 | 1 | 0 | 14.5 | 15.5
MTCP1 | 1 | 0 | 10.9 | 14.6
MTCP1 | 2 | 0 | 14.5 | 13.6
ZNF513 | 1 | 0 | 8.9 | 4.6
LOC158812 | 1 | 0 | 11.5 | 9.3
DMTN | 1 | 0 | 1.5 | 6.8
NFU1 | 1 | 1 | 10.2 | 17.8
LOC439952 | 1 | 0 | 10.2 | 9.8

Individual results from the entries so far.
CYP11A1, protection from cisplatin (shift in death), siRNA C (%): -14.5
Under “protection from cisplatin (shift in death), siRNA C (%)”, NTN5 is entered as 3.6
Value for RASSF6 in “protection from cisplatin (shift in death), siRNA C (%)”: 15.1
